First the molecules themselves.
B1: human tRNA-Pro; a variant is named by its letters at N, in order (parent)
chain: GGCTCGTTGGTCTAGNGGTATGATTCTCGCTTAGGGTGCGAGAGGTCCCGGGTTCNNATCCCGGACGAGCCC

This is a noisy data set.

The values below come from the supplement of paper PMC6445147.

Variants of B1 are the subject of this data set. Description: tRNA 5' processing efficiency (processed reads / all reads, maximum-likelihood estimate) (fraction); higher = more efficient 5' processing. The conditions noted are these: HEK293T; construct: CMV Pol-II promoter ((+)CMV library, decapped).
Regarding GGCTCGTTGGTCTATGCGTCTGATTCTCGCTTAGGGTGCGAGAGGTCCCGGGTTCATATCCCGGACGAGCCC, the “tRNA 5' processing efficiency” value was 0.25.
On to GGCTCGTTGGTCTACGGTTATGATTCTCGCTTAGGGTGCGAGAGGTCCCGGGTGCATATCCCGGACGAGCCC, for which the “tRNA 5' processing efficiency” value is 0.33.
GGCTCGTTGGTCTATGTTTATGATTCTCGCTTAGGGTGCGAGAGGTCCCGGGTGCATACCCCGGACGAGCCC: the “tRNA 5' processing efficiency” value is 0.25.
For the variant GGCTCGTTGGTCTAAGTTTATGATTCTCGCTTAGGGTGCGAGAGGTCCCGGGTCCATATCCCGGACGAGCCC, the “tRNA 5' processing efficiency” value is 0.25.
On to GGCTCGTTGGTCTAAGCGTGTGATTCTCGCTTAGGGTGCGAGAGGTCCCGGGTTTATATCCCGGACGAGCCC, for which the “tRNA 5' processing efficiency” value is 0.25.
For the variant GGCTCGTTGGTCTACTCGTATGATTCTCGCTTAGGGTGCGAGAGGTCCCGGGTTGATATCCCGGACGAGCCC, the “tRNA 5' processing efficiency” value was 0.14.
In the case of GGCTCGTTGGTCTAATGGTATGATTCTCGCTTAGGGTGCGAGAGGTCCCGGGTTCATGTCCCGGACGAGCCC, the “tRNA 5' processing efficiency” value was 0.25.
With GGCTCGTTGGTCTAGGGATTTGATTCTCGCTTAGGGTGCGAGAGGTCCCGGGTTCATCTCCCGGACGAGCCC, the “tRNA 5' processing efficiency” value was 0.25.
As to GGCTCGTTGGTCTAGGCGTGTGATTCTCGCTTAGGGTGCGAGAGGTCCCGGGTTGATATCCCGGACGAGCCC, the “tRNA 5' processing efficiency” value was 0.43.
For the variant GGCTCGTCGGTCTAGGGGTATGATTCTCGCTTAGGGTGCGAGAGGTCCCGGGTTCATTTCCCGGACGAGCCC, the “tRNA 5' processing efficiency” value was 0.33.
In the case of GGCTCGTTGGTCTACGCATATGATTCTCGCTTAGGGTGCGAGAGGTCCCGGGTACATATCCCGGACGAGCCC it was 0.25; in that of GGCTCGTTTGTCTAAGCGTATGATTCTCGCTTAGGGTGCGAGAGGTCCCGGGTTCATATCCCGGACGAGCCC, 0.25.
Next, GGCTCGTTGGTCTAAGGGTATGATTCTCGCTTAGGGTGCGAGAGGTCCCGGGTATATATCCCGGACGAGCCC: 0.5; GGCTCGTTGGTCTAGCAGTATGATTCTCGCTTAGGGTGCGAGAGGTCCCGGGTTCATATCCCGGACGAGCCC: 0.25; GGCTCGTATGTCTAGGACTATGATTCTCGCTTAGGGTGCGAGAGGTCCCGGGTGCATATCCCGGACGAGCCC: 0.18.
On to GGCTCGTTGGTCTAGATGTGTGATTCTCGCTTAGGGTGCGAGAGGTCCCGGGTTAATCTCCCGGACGAGCCC, for which the “tRNA 5' processing efficiency” value is 0.1.
As for GGCTCGTTGGTCTAAGGGTATGATTCTCGCTTAGGGTGCGAGAGGTCCCGGGCTAATCTCCCGGACGAGCCC, the “tRNA 5' processing efficiency” value is 0.17.
Consider GGCTCGTAGGTCTAGGCTTATGATTCTCGCTTAGGGTGCGAGAGGTCCCGGGTGCATATCCCGGACGAGCCC, for which the “tRNA 5' processing efficiency” value is 0.2.
Turning to GGCTCGTTTGTCTAGGGCTATGATTCTCGCTTAGGGTGCGAGAGGTCCCGGGAGCATAACCCGGACGAGCCC, the “tRNA 5' processing efficiency” value was 0.33.
Turning to GGCTCGTTGGTCTAATGCTATGATTCTCGCTTAGGGTGCGAGAGGTCCCGGGTTCATATCCCGGACGAGCCC, the “tRNA 5' processing efficiency” value is 0.25.
In the case of GGCTCGTCGGTCTAGGAGTATGATTCTCGCTTAGGGTGCGAGAGGTCCCGGGCTCATATCCCGGACGAGCCC it was 0.5.
Consider GGCTCGTTTGTCTATGGGTATGATTCTCGCTTAGGGTGCGAGAGGTCCCGGGTTCATATCCCGGACGAGCCC, for which the “tRNA 5' processing efficiency” value was 0.2.
For GGCTCGTAGGTCTAAGGGGATGATTCTCGCTTAGGGTGCGAGAGGTCCCGGGTTCATATCCCGGACGAGCCC, the “tRNA 5' processing efficiency” value was 0.18.
Next, GGCTCGTTTGTCTAGGGGTATGATTCTCGCTTAGGGTGCGAGAGGTCCCGGGTACATATCCCGGACGAGCCC: 0.33.
As for GGCTCGTTGGTCTAGGAGTATGATTCTCGCTTAGGGTGCGAGAGGTCCCGGGTTCATTTCCCGGACGAGCCC, the “tRNA 5' processing efficiency” value is 0.33.
In the case of GGCTCGTTCGTCTAAGGGTATGATTCTCGCTTAGGGTGCGAGAGGTCCCGGGTTCATATCCCGGACGAGCCC it was 0.25; in that of GGCTCGTTGGTCTAGGTGGATGATTCTCGCTTAGGGTGCGAGAGGTCCCGGGTTGATATCCCGGACGAGCCC, 0.2.
In the case of GGCTCGTTGGTCTACGGGGATGATTCTCGCTTAGGGTGCGAGAGGTCCCGGGTTCATATCCCGGACGAGCCC, the “tRNA 5' processing efficiency” value was 0.2.
With GGCTCGTTGGTCTAGGGTTTTGATTCTCGCTTAGGGTGCGAGAGGTCCCGGGTTCATATCCCGGACGAGCCC, the “tRNA 5' processing efficiency” value is 0.4.
Regarding GGCTCGTCGGTCTTGGTGTATGATTCTCGCTTAGGGTGCGAGAGGTCCCGGGTAGATTTCCCGGACGAGCCC, the “tRNA 5' processing efficiency” value is 0.07.
Next, GGCTCGTTAGTCTAGGAGATTGATTCTCGCTTAGGGTGCGAGAGGTCCCGGGTTCATATCCCGGACGAGCCC: 0.5; GGCTCGTTGGTCTAGGGTTATGATTCTCGCTTAGGGTGCGAGAGGTCCCGGGTTTATATCCCGGACGAGCCC: 0.25; GGCTCGTAGGTCTAGGGGTATGATTCTCGCTTAGGGTGCGAGAGGTCCCGGGTTCATAGCCCGGACGAGCCC: 0.57.
Take GGCTCGTTGGTCTAAGGGTATGATTCTCGCTTAGGGTGCGAGAGGTCCCGGGATAATATCCCGGACGAGCCC: the “tRNA 5' processing efficiency” value was 0.33.
For GGCTCGTTTGTCTAGGGGTATGATTCTCGCTTAGGGTGCGAGAGGTCCCGGGTTCATGGCCCGGACGAGCCC, the “tRNA 5' processing efficiency” value is 0.25.
In the case of GGCTCGTAGGTCTAGGGGTATGATTCTCGCTTAGGGTGCGAGAGGTCCCGGGGGCATTTCCCGGACGAGCCC it was 0.25; in that of GGCTCGTTGGTCTAGGAGTATGATTCTCGCTTAGGGTGCGAGAGGTCCCGGGTTCATATCCCGGACGAGCCC, 0.43.
Take GGCTCGTTGGTCTATGGTATTGATTCTCGCTTAGGGTGCGAGAGGTCCCGGGTTCATATCCCGGACGAGCCC: the “tRNA 5' processing efficiency” value is 0.17.
